Data from publication PMC3689661, “Plant Kinesin-Like Calmodulin Binding Protein Employs Its Regulatory Domain for Dimerization” (PLoS ONE, 2013).
No constants are given. Whether binding was seen depends on the method and setting. For part of these data: Sequences can lack the tags named with a protein.

B1: 6-His-KCBP (884–1225) (domain or fragment, UniProt Q9FHN8 884-1225)
chain: DMKGKIRVYCRIRPLNEKESSEREKQMLTTVDEFTVEHPWKDDKRKQHIYDRVFDMRASQDDIFEDTKYLVQSAVDGYNVCIFAYGQTGSGKTFTIYGHESNPGLTPRATKELFNILKRDSKRFSFSLKAYMVELYQDTLVDLLLPKSARRLKLEIKKDSKGMVFVENVTTIPISTLEELRMILERGSERRHVSGTNMNEESSRSHLILSVVIESIDLQTQSAARGKLSFVDLAGSERVKKSGSAGCQLKEAQSINKSLSALGDVIGALSSGNQHIPYRNHKLTMLMSDSLGGNAKTLMFVNVSPAESNLDETYNSLLYASRVRTIVNDPSKHISSKEMVRL
B2: Arabidopsis KCBP (884–1244) (domain or fragment, UniProt Q9FHN8 884-1244)
chain: DMKGKIRVYCRIRPLNEKESSEREKQMLTTVDEFTVEHPWKDDKRKQHIYDRVFDMRASQDDIFEDTKYLVQSAVDGYNVCIFAYGQTGSGKTFTIYGHESNPGLTPRATKELFNILKRDSKRFSFSLKAYMVELYQDTLVDLLLPKSARRLKLEIKKDSKGMVFVENVTTIPISTLEELRMILERGSERRHVSGTNMNEESSRSHLILSVVIESIDLQTQSAARGKLSFVDLAGSERVKKSGSAGCQLKEAQSINKSLSALGDVIGALSSGNQHIPYRNHKLTMLMSDSLGGNAKTLMFVNVSPAESNLDETYNSLLYASRVRTIVNDPSKHISSKEMVRLKKLVAYWKEQAGKKGEEED

Tests used:
[1] = target: 6-His-KCBP (884–1225) (Arabidopsis) (UniProt Q9FHN8); assay: SEC; Superdex 200 16/60; 50 mM Tris pH 7.5, 150 mM NaCl, 2 mM MgCl2, 0.1 mM ATP, 1 mM TCEP, and either 1 mM EGTA or 2 mM CaCl2; isolated proteins; both purified
[2] = target: Arabidopsis KCBP (884–1244) (Arabidopsis) (UniProt Q9FHN8); assay: as above
[3] = target: Arabidopsis KCBP (884–1244) (Arabidopsis) (UniProt Q9FHN8); assay: AUC; sedimentation equilibrium, Beckman Optima XL-A; three concentrations (OD280 ~0.25, ~0.4, ~0.5), 5 speeds between 3,000 and 16,000 rpm, 281 nm, 5.8°C (legend of Figure S1: 20°C); 1-component model; both purified

| Binder | binding [1] | binding [2] | binding [3] |
| --- | --- | --- | --- |
| B1 | no binding | – | – |
| B2 | – | no binding | no binding |
